Assay results reported in the supplement of paper PMC10849652.
The other results are listed elsewhere or left out.

By UniProt entry, the sequences of proteins in these tests, tags left out. Where a name states a change or a piece, a line headed by the entry shows the natural chain unless it says otherwise.
UniProt P35241, whole entry, looked up: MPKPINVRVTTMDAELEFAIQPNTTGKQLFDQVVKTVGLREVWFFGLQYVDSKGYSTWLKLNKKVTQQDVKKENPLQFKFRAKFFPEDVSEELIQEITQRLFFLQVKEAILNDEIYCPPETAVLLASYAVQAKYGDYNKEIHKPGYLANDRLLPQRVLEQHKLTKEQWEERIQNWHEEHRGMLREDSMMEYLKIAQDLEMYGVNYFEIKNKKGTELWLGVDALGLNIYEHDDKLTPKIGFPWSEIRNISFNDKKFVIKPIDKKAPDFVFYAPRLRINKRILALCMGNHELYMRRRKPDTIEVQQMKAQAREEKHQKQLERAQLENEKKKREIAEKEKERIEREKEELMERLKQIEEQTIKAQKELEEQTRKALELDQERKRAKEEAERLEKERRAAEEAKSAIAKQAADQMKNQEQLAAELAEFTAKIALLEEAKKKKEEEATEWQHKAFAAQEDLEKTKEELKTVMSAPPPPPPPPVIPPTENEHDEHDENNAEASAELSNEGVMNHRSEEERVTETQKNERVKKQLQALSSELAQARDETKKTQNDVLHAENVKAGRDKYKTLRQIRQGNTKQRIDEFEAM
UniProt Q92546: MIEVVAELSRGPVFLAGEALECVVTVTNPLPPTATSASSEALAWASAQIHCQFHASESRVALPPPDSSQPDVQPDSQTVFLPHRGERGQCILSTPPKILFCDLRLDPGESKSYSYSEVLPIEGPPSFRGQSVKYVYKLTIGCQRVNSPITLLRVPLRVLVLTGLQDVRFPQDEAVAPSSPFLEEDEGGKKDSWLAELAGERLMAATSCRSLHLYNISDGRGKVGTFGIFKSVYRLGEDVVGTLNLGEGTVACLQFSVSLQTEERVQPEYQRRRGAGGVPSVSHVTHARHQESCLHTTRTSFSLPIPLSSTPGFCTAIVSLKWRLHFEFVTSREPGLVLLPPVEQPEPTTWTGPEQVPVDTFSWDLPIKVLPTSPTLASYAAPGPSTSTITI
UniProt P98175: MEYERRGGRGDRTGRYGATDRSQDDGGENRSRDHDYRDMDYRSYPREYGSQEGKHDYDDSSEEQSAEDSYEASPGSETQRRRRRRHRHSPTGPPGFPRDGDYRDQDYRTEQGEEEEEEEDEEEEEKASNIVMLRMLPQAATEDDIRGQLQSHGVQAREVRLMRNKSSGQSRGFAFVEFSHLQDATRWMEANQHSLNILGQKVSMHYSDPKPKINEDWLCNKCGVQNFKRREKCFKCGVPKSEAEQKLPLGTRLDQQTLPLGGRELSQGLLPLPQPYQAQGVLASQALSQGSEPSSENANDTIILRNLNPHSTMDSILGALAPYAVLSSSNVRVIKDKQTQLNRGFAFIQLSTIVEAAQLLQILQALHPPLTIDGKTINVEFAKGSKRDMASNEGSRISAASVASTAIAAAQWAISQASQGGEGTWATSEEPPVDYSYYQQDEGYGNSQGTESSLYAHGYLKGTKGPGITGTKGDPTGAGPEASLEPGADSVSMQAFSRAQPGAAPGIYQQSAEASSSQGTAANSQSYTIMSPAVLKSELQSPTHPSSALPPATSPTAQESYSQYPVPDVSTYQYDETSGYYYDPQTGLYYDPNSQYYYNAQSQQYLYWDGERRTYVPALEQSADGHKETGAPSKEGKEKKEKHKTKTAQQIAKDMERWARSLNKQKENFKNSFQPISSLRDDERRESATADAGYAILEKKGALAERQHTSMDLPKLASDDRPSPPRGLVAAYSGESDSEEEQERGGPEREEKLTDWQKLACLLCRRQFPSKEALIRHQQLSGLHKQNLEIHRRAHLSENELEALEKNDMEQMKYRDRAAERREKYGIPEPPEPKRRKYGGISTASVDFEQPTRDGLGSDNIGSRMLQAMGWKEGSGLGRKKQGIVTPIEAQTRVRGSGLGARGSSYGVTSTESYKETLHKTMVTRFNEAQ
UniProt O00287: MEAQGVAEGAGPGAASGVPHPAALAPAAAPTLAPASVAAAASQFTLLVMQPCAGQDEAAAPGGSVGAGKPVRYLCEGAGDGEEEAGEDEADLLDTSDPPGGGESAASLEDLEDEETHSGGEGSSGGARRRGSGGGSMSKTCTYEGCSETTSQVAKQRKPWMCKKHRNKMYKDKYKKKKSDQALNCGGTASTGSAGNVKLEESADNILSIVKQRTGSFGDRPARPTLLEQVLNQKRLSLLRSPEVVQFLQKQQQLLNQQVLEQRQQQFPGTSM
UniProt Q96HR9: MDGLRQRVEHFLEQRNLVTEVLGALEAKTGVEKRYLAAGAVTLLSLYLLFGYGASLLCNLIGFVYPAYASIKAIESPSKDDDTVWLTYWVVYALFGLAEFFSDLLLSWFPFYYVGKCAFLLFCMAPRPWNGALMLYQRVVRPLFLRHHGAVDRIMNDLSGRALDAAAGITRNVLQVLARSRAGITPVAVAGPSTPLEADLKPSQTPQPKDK
UniProt Q06330: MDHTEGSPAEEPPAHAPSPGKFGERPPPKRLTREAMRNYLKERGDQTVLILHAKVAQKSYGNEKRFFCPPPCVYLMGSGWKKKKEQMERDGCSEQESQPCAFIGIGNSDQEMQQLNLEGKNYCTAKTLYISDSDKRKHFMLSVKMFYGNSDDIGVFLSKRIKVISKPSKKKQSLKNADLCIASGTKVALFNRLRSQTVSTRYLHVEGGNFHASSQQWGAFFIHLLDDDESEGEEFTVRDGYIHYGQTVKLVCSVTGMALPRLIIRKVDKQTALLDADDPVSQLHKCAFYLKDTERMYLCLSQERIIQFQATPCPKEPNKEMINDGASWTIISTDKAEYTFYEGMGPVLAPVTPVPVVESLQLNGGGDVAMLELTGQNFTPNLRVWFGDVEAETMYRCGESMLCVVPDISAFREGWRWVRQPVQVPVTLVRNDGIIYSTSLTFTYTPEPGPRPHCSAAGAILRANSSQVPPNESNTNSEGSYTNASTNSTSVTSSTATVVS
UniProt Q8NBN7: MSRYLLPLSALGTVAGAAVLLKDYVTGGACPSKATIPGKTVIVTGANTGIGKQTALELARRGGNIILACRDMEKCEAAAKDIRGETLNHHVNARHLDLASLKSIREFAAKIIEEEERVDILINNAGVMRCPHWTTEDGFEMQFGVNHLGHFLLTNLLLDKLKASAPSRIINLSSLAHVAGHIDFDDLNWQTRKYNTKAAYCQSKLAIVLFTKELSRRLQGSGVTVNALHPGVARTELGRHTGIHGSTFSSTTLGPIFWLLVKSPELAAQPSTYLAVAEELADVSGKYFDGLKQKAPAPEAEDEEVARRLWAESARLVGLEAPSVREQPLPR
UniProt Q15293: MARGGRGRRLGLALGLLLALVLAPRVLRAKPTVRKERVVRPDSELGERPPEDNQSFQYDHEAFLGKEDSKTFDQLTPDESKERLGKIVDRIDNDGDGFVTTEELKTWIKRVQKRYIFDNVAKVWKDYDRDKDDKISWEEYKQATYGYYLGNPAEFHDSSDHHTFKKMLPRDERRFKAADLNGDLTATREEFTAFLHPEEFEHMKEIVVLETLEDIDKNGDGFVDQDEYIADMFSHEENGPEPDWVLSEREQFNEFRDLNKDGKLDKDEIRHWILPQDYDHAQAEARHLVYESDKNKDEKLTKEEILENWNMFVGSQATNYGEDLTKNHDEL
UniProt Q9P260: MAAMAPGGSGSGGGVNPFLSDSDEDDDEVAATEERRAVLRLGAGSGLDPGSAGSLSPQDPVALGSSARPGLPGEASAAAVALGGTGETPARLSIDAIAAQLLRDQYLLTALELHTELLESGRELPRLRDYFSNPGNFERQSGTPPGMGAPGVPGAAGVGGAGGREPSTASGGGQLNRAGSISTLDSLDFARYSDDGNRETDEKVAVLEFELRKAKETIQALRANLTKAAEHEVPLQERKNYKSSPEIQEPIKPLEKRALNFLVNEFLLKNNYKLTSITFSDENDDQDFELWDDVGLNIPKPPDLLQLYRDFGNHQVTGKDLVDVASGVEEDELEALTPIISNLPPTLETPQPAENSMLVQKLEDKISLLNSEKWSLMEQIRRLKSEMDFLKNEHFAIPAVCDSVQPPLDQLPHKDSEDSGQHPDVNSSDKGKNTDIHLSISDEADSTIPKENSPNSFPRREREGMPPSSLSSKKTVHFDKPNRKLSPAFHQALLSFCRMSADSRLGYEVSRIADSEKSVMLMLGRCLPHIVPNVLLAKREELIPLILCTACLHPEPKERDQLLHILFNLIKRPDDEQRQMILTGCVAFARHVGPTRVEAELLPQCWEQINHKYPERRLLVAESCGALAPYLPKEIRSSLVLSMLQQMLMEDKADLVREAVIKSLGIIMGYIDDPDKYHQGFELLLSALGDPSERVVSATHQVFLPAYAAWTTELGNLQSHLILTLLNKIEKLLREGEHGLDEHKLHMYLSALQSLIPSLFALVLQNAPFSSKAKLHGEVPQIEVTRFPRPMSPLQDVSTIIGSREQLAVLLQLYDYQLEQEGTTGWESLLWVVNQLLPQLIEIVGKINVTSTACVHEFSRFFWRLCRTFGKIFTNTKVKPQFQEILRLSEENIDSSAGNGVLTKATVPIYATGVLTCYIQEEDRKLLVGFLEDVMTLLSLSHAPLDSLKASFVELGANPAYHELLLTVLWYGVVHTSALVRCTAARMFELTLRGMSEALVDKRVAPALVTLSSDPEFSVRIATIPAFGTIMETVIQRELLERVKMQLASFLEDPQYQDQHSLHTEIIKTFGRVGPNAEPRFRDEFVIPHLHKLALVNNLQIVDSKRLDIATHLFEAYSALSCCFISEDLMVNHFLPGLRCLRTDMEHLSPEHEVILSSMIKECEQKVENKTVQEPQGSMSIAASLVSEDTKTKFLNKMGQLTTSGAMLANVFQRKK
UniProt Q9GZR2: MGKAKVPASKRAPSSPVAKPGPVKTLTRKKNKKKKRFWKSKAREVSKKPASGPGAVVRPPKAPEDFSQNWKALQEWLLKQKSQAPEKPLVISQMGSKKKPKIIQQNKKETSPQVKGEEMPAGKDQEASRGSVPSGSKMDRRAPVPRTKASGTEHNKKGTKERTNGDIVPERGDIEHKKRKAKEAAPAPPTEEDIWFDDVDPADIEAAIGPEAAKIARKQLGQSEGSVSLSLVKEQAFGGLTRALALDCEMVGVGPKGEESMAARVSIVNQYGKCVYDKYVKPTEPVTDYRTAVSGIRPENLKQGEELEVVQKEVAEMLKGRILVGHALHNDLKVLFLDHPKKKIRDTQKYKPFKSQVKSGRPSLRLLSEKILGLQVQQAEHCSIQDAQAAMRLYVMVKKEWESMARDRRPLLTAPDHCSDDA
UniProt P52756, whole entry, looked up: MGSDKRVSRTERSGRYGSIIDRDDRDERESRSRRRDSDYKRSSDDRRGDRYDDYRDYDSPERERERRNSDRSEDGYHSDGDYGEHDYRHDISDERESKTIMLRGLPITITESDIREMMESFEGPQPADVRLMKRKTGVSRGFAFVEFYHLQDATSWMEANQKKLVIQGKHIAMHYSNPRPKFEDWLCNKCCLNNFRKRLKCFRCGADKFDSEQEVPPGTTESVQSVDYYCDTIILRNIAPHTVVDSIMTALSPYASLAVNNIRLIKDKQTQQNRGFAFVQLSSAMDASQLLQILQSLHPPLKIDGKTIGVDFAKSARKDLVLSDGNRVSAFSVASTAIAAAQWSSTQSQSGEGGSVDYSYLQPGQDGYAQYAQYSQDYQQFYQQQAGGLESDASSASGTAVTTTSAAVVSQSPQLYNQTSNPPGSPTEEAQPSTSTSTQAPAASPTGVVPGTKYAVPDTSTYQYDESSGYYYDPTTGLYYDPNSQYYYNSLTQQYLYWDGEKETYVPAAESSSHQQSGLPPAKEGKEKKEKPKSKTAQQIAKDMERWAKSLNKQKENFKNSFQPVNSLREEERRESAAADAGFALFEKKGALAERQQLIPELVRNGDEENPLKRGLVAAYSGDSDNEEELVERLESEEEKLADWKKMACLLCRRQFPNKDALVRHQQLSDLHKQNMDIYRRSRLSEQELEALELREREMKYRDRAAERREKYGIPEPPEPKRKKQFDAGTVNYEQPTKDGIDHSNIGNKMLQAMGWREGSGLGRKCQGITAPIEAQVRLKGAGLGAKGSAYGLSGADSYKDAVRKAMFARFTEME
UniProt Q8N5W9: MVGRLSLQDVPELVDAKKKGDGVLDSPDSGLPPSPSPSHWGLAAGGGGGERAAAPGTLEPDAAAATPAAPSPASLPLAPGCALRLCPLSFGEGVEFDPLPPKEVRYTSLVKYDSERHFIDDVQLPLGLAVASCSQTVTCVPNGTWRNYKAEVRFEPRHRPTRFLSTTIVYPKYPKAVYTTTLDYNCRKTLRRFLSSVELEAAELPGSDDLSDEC

Columns and labels:
Test in all cases: log2 fold change, soluble protein after heating vs DMSO (PISA); higher = thermal stabilisation; K562 lysate, 10 uM; active = over 0.2 and 3.5 SD of the protein, either way, in both replicates (recomputed)
ibrutinib = compound: C=CC(=O)N1CCC[C@@H](n2nc(-c3ccc(Oc4ccccc4)cc3)c3c(N)ncnc32)C1 [ibrutinib]
In short: (§1)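 Dounce homogenisation of K562 pellets in PBS pH 7.4 with 1 mM MgCl2 produced a crude extract, used at 1 mg/mL protein. Exposure to 10 μM compound lasted 30 min, and aliquots were then heated for 3 min across 48°C-58°C, pooled and brought to 0.5% NP-40 at 4°C. The supernatant after 21,000xg for 90 min was quantified by TMTpro 16plex LC-MS/MS with channel sums equalised. Duplicate values are given as log-two fold change in thermal stability relative to solvent controls.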

[1] = compound: CC(=O)c1cnc2ccc(-c3cc(Cl)c(O)c(Cl)c3)nc2c1N[C@H]1CC[C@H](CN(C)C)CC1
In short: as §1

ralimetinib = compound: CC(C)(C)Cn1c(N)nc2ccc(-c3[nH]c(C(C)(C)C)nc3-c3ccc(F)cc3)nc21 [ralimetinib]
In short: as §1

[2] = compound: CC(C)(O)CC(=O)NCCn1ccc2ncnc(Nc3ccc(Oc4cccc(C(F)(F)F)c4)c(Cl)c3)c21
In short: as §1

[3] = compound: CC(C)C1=C2N=C(C=C(N2N=C1)NCC3=CC=CC=C3)NCCCCCCN
In short: as §1

[4] = compound: CC1=C(C(CC(=O)N1)C2=CC=C(C=C2)C(F)(F)F)C(=O)NC3=C(C=C4C(=C3)C=NN4)F
In short: as §1

[5] = compound: CC1=C(C2=C(C=C1)C(=O)C3=CC=CC=C3N2CCCN)C
In short: as §1

[6] = compound: CC1=C(C=C(C=C1)NC(=O)C2=CC(=CC=C2)C(C)(C)C#N)NC3=CC4=C(C=C3)N=CN(C4=O)C
In short: as §1

[7] = compound: CC1=C(C=C(C=C1)NC(=O)C2=CC(=CC=C2)N(C)C)NC(=O)C3=CC=C(C=C3)O
In short: as §1

[8] = compound: CC1=CC=C(C=C1)SC2=C3C=C(SC3=CN=C2)C(=O)N
In short: as §1

Measured: log2 fold change

RBM26 isoform 2 (UniProt Q5T8P6)
inactive: ibrutinib 0.007 | [1] -0.009 | ralimetinib -0.01 | [2] -0.013 | [3] 0.016 | [4] -0.017 | [5] 0.016 | [6] -0.006 | [7] 0.03 | [8] -0.005

RBM42 (UniProt Q9BTD8)
inactive: ibrutinib 0.071 | [1] 0.02 | ralimetinib -0.011 | [2] -0.007 | [3] 0.081 | [4] 0.025 | [5] 0.04 | [6] -0.028 | [7] -0.005 | [8] 0.069

RDX (UniProt P35241)
inactive: ibrutinib -0.051 | [1] 0 | ralimetinib -0.003 | [2] 0.002 | [3] 0.012 | [4] -0.016 | [5] -0.011 | [6] -0.021 | [7] -0.002 | [8] -0.004

RGP1 (UniProt Q92546)
inactive: ibrutinib -0.005 | [1] -0.139 | ralimetinib 0.037 | [2] 0.203 | [3] -0.047 | [4] 0.034 | [5] -0.06 | [6] 0.034 | [7] -0.005 | [8] -0.018

RBM4 (UniProt Q9BWF3)
inactive: ibrutinib 0.006 | [1] 0.021 | ralimetinib 0.008 | [2] -0.014 | [3] 0.023 | [4] 0.028 | [5] 0.005 | [6] -0.154 | [7] 0.025 | [8] -0.004

RBM10 isoform 5 (UniProt P98175)
inactive: ibrutinib 0.003 | [1] 0.004 | ralimetinib -0.025 | [2] -0.038 | [3] 0.019 | [4] 0.014 | [5] 0.005 | [6] 0.044 | [7] -0.02 | [8] -0.007

RCOR3 isoform 3 (UniProt Q9P2K3)
inactive: ibrutinib -0.009 | [1] -0.03 | ralimetinib 0.014 | [2] -0.004 | [3] 0.011 | [4] 0 | [5] 0.002 | [6] -0.038 | [7] 0.002 | [8] -0.011

RFFL (UniProt Q8WZ73)
inactive: ibrutinib -0.249 | [1] 0.18 | ralimetinib -0.111 | [2] -0.041 | [3] -0.027 | [4] -0.083 | [5] -0.07 | [6] -0.015 | [7] 0.041 | [8] -0.002

RASA3 (UniProt Q14644)
inactive: ibrutinib 0 | [1] -0.031 | ralimetinib -0.012 | [2] -0.054 | [3] 0.02 | [4] -0.048 | [5] 0.031 | [6] -0.026 | [7] -0.018 | [8] -0.078

RFXAP (UniProt O00287)
inactive: ibrutinib 0.083 | [1] -0.037 | ralimetinib 0.049 | [2] -0.003 | [3] -0.036 | [4] 0.021 | [5] -0.031 | [6] 0.049 | [7] 0.013 | [8] -0.028

RDH14 (UniProt Q9HBH5)
inactive: ibrutinib 0.017 | [1] 0.061 | ralimetinib 0.072 | [2] 0.089 | [3] 0.012 | [4] -0.031 | [5] 0.053 | [6] -0.073 | [7] 0.032 | [8] -0.012

RBBP4 (UniProt Q09028)
inactive: ibrutinib 0.031 | [1] -0.01 | ralimetinib 0.031 | [2] 0.024 | [3] -0.006 | [4] -0.022 | [5] 0.003 | [6] 0.035 | [7] -0.021 | [8] -0.017

REEP6 (UniProt Q96HR9)
inactive: ibrutinib -0.026 | [1] -0.026 | ralimetinib 0.018 | [2] -0.029 | [3] -0.067 | [4] -0.006 | [5] -0.066 | [6] 0.084 | [7] 0.055 | [8] 0.038

RBBP7 (UniProt Q16576)
inactive: ibrutinib 0.062 | [1] 0.018 | ralimetinib 0.018 | [2] 0 | [3] -0.042 | [4] -0.003 | [5] 0.014 | [6] -0.114 | [7] 0.002 | [8] -0.03

Random excerpt: two records from the list
RFXAP (UniProt O00287)
inactive: ibrutinib 0.083 | [1] -0.037 | ralimetinib 0.049 | [2] -0.003 | [3] -0.036 | [4] 0.021 | [5] -0.031 | [6] 0.049 | [7] 0.013 | [8] -0.028

RBBP4 (UniProt Q09028)
inactive: ibrutinib 0.031 | [1] -0.01 | ralimetinib 0.031 | [2] 0.024 | [3] -0.006 | [4] -0.022 | [5] 0.003 | [6] 0.035 | [7] -0.021 | [8] -0.017

(list continues)

RBMX (UniProt P38159)
inactive: ibrutinib -0.034 | [1] -0.132 | ralimetinib 0.004 | [2] 0.032 | [3] -0.029 | [4] -0.017 | [5] 0.035 | [6] -0.016 | [7] -0.016 | [8] -0.006

RBPJ (UniProt Q06330)
inactive: ibrutinib 0.025 | [1] 0.042 | ralimetinib 0.006 | [2] -0.02 | [3] 0.022 | [4] 0 | [5] -0.026 | [6] 0.013 | [7] -0.022 | [8] -0.002

RDH13 (UniProt Q8NBN7)
inactive: ibrutinib -0.01 | [1] -0.01 | ralimetinib 0.011 | [2] -0.102 | [3] -0.041 | [4] 0.023 | [5] -0.005 | [6] 0.005 | [7] 0 | [8] 0.056

RAPGEF6 isoform 4 (UniProt Q8TEU7)
inactive: ibrutinib -0.01 | [1] -0.003 | ralimetinib 0.021 | [2] -0.028 | [3] 0.002 | [4] 0.013 | [5] -0.02 | [6] -0.004 | [7] 0.038 | [8] -0.031

RCN1 (UniProt Q15293)
inactive: ibrutinib -0.031 | [1] -0.002 | ralimetinib -0.004 | [2] 0.034 | [3] -0.019 | [4] -0.007 | [5] -0.016 | [6] -0.029 | [7] 0.005 | [8] 0.008

RECQL5 (UniProt O94762)
inactive: ibrutinib 0.014 | [1] -0.335 | ralimetinib 0.035 | [2] -0.015 | [3] 0.055 | [4] 0.03 | [5] -0.066 | [6] -0.044 | [7] 0.035 | [8] -0.001

RFC5 (UniProt P40937)
inactive: ibrutinib -0.038 | [1] -0.001 | ralimetinib 0.046 | [2] 0.02 | [3] 0.012 | [4] -0.002 | [5] -0.009 | [6] 0.014 | [7] 0.025 | [8] 0.018

RHEB (UniProt Q15382)
inactive: ibrutinib 0.024 | [1] 0.03 | ralimetinib 0.065 | [2] 0.048 | [3] 0.008 | [4] -0.01 | [5] 0.003 | [6] -0.018 | [7] -0.001 | [8] 0.003

RELCH isoform 2 (UniProt Q9P260)
inactive: ibrutinib -0.001 | [1] 0.011 | ralimetinib 0.016 | [2] -0.054 | [3] -0.039 | [4] 0.041 | [5] -0.057 | [6] 0.004 | [7] 0.011 | [8] 0.054

RFT1 (UniProt Q96AA3)
inactive: ibrutinib 0.027 | [1] -0.038 | ralimetinib 0.053 | [2] -0.014 | [3] -0.036 | [4] 0.02 | [5] -0.02 | [6] 0.025 | [7] -0.013 | [8] -0.07

REXO4 (UniProt Q9GZR2)
inactive: ibrutinib 0.014 | [1] 0.027 | ralimetinib 0.021 | [2] 0.074 | [3] -0.024 | [4] 0.023 | [5] -0.053 | [6] -0.043 | [7] 0.056 | [8] 0.008

RBM12 (UniProt Q9NTZ6)
inactive: ibrutinib -0.002 | [1] 0.002 | ralimetinib -0.02 | [2] 0 | [3] -0.006 | [4] -0.003 | [5] 0.02 | [6] -0.016 | [7] 0.021 | [8] 0

RBM5 (UniProt P52756)
inactive: ibrutinib -0.017 | [1] 0.03 | ralimetinib 0.004 | [2] 0.042 | [3] -0.141 | [4] -0.004 | [5] 0.065 | [6] 0.035 | [7] -0.007 | [8] -0.06

RBBP8 isoform 2 (UniProt Q99708)
inactive: ibrutinib -0.204 | [1] 0.005 | ralimetinib -0.086 | [2] 0.011 | [3] -0.006 | [4] 0.003 | [5] -0.018 | [6] -0.066 | [7] -0.006 | [8] -0.143

RFLNB (UniProt Q8N5W9)
inactive: ibrutinib 0.053 | [1] -0.016 | ralimetinib -0.05 | [2] 0.013 | [3] 0.006 | [4] 0.134 | [5] 0.144 | [6] -0.065 | [7] 0.001 | [8] 0.103

RBBP6 (UniProt Q7Z6E9)
inactive: ibrutinib 0.039 | [1] 0.025 | ralimetinib -0.015 | [2] -0.017 | [3] 0.029 | [4] 0.003 | [5] -0.049 | [6] 0 | [7] -0.003 | [8] 0.002
